One assay deals with human IL-17A (human) (UniProt Q16552). The experiment in a line: ELISA of hybridoma supernatants. (In an ELISA, binding on a coated surface is turned into a signal by an enzyme label.)
In assay [1] the target is cynomolgus monkey IL-17A (cynomolgus monkey). The experiment in a line: ELISA of hybridoma supernatants.

Amino acid sequences for entries named in this document (tags omitted). A change or cut given only in a name is not applied to a line headed by its entry.
UniProt Q16552: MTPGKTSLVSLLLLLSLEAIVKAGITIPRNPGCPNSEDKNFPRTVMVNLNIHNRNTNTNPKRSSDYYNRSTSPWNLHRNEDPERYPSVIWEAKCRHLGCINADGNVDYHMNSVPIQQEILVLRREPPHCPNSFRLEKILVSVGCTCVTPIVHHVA

Results are given in words; binding and its absence hold for the method and conditions named. Some entries that bind do so weakly or less than the wild type.

B1: ML109-8B12 (antibody, V domains shown)
VH: QVQLKESGPGLVAPSQSLSITCTISGFSLTSYGVHWVRQPPGKGLEWLVVIWSDGTTTYNSALKSRLSITRDNSKSQVFLKMNSLQTDDTAIYYCARDSTWDYYYTMDYWGQGTPVTVSS
VL: DVVMTQTPLSLPVSLGDQASISCRSSQSLVHSNGNTYLHWYLQKPGQSPKLLIYKVSNRFSGVPDRFSGSGSGTDFTLKISRVEAEDLGVYFCSQSTHVYTFGGGTKLEIKR
Turning to B1, the binding result (in the assay with human IL-17A (human); in assay [1]) was “binds” each time.

B2: ML109-7D7 (antibody, V domains shown)
VH: QVQLQQSGAELVRPGTSVTLSCKASGYRFTDYEIHWIKQTPAQVLEWIGVTDPESGGTLHNPKFDGKATLTADKSSRTAYMELRSLTSEDSAVYYCTRYYKYESFYGMDYWGQGTSVTVSS
VL: QIVLTQSPAIMSAFPGEKVTMTCSASSSISYMCWYQQKPGTSPKRWICDTSKLASGVPVRFSGSGSGTSYSLTINSMETEDAATYYCQQRSSYPWTFGGGTKVEIKR
Consider B2, for which the binding result (in the assay with human IL-17A (human); in assay [1]) was “binds” each time.

B3: ML109-1D8 (antibody, V domains shown)
VH: QVQLQQSGAELVRPGASVKLSCKASGYTFSDYEMHWVKQTPVHGLEWIGVIHPGNGGTAYNQKFRDKATLTADKSSTTAYMELSSLTSEDSAVYYCIRFLTYEGYFDYWGQGTTLTVSS
VL: SIVMTQTPKFLLVSAGDRVTITCKASQSVNNDVAWFQHKPGQSPKLLINYASNRYTGVPDRFTGSGYGTDFTFTISTVQSEDLAIYFCQQDYGSPYTFGGGTTLEIKR
In the case of B3, the binding entry (in the assay with human IL-17A (human); in assay [1]) was “binds” in each case.

B4: ML109-5C5 (antibody, V domains shown)
VH: QVQLQQSGAELVRPGASVKLSCKALGYTFTDYEFHWVKQTPVHGLEWIGVIHPGNGGTAYNQNFRDKATLTADKSSSTAYMELSSLTSEDSGVYYCTRFLTYEGYFDYWGQGTALTVSS
VL: NIVMTQTPKFLLVSPGDRVTITCKASQSVSIDVGWFQQKPGQSPKLLIYHASNRYTGVPDRFTGSGYGTDFTFTVNTVQAEDLAVYFCQQDYSSPYTFGGGTKLELKR
On to B4, for which the binding entry (in the assay with human IL-17A (human); in assay [1]) was “binds” in each case.

B5: ML109-10G9 (antibody, V domains shown)
VH: QVQLKESGPALVAPSQSLSFTCTISGFSLSSYGVHWVRQPPGKGLEWLVVIWSDGTTTYNSALKSRLSISKDNSKSQVFLKMNSLQTDDTAMYYCARDGYYIYTMDYWGQGTSVTVSS
VL: DVVMTQTPLSLPVSLGDQASISCRSSQSLVHSNGNTYLHWYLQRPGQSPKLLIYKVSNRFSGVPDRFSGSGSGTDFTLKISRVEAEDLGLYFCSQGTHAPLTFGAGTKLELNR
Take B5: the binding result (in the assay with human IL-17A (human); in assay [1]) was “binds” throughout.

The values above are taken from US20140348834A1.
